1 substance from publication PMC11787094 can be followed below.

By UniProt entry, the sequences of proteins in these tests, tags left out.
UniProt P51683: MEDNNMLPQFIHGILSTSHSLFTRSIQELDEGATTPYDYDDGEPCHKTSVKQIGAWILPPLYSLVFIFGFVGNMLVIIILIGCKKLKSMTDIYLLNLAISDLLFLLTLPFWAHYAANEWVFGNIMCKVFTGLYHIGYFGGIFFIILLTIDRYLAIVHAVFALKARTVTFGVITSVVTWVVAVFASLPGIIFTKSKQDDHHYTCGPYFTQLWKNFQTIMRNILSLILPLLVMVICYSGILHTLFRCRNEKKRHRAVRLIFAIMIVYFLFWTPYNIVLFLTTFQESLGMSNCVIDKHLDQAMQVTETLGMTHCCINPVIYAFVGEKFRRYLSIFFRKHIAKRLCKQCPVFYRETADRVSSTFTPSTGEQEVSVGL
UniProt P46935: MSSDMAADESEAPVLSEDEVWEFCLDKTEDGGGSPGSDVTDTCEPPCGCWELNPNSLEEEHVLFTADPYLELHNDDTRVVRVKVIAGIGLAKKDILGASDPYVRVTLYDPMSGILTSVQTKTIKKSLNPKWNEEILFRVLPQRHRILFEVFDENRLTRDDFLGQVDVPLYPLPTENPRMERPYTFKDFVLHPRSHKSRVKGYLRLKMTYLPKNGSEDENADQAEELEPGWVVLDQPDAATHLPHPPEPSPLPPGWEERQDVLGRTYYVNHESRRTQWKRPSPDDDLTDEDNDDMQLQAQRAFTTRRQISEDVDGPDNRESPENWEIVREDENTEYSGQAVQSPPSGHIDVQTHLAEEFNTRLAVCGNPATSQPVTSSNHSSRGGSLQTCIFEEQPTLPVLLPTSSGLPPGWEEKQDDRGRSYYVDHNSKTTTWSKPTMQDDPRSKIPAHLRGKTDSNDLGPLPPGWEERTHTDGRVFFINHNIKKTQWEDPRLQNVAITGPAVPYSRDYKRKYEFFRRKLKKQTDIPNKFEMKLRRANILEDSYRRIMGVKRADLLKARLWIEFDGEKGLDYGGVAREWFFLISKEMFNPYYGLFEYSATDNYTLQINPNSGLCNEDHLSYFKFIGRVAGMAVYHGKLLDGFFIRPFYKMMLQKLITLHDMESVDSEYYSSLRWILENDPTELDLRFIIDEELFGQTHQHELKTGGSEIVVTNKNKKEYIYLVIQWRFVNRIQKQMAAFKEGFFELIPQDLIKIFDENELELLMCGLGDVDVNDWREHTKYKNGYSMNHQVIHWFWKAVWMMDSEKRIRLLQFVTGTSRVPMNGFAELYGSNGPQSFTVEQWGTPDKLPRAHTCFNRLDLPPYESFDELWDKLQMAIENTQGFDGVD

Results are given in words; binding and its absence hold for the method and conditions named. In cells and extracts the contact can be indirect. Some results given as binding are weak or reduced against the parent protein; the word gives no strength.

In the test the target is CCR2 (mouse (endogenous in bone marrow-derived MDSCs of C57BL/6J mice)) (UniProt P51683). As to the kind of experiment: co-IP; reciprocal co-IP of endogenous proteins from MDSC lysate; anti-NEDD4 or anti-CCR2 antibody on Protein G magnetic beads, lysate rotated overnight at 4 °C, three washes, immunoblot.

Take “NEDD4 E3 ligase (from UniProt P46935 1-887) (enzyme)”: the binding entry is “binds”.
